Assay results from PMC10590452.
Results are given in words; binding and its absence hold for the method and conditions named. In cells and extracts the contact can be indirect. Here binding means that the protein was enriched with, or labelled near, the bait; the list need not be complete.

Chains of the proteins cited; added tags and fusions are not shown. Residues count along the entry.
UniProt Q9NZC2, residues 19-174: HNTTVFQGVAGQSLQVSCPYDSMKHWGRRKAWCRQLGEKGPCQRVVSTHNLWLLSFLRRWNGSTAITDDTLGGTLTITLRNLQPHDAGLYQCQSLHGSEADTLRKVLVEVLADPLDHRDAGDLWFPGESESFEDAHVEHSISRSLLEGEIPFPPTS
UniProt P37802: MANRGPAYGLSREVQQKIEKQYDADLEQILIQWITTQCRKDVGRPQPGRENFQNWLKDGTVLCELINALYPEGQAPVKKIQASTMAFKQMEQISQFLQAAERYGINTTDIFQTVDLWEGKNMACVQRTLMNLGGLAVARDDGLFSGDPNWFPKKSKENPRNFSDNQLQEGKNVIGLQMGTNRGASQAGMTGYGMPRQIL

Target: Fc-tagged human soluble TREM2 (Fc-sTREM2) (human) (UniProt Q9NZC2)
Experiment: affinity purification with mass spectrometry; membrane protein of SH-SY5Y cells incubated with Fc-sTREM2 and Protein A agarose for 24 h; LC-MS/MS; only the target purified

## transgelin-2 (TG2), endogenous in SH-SY5Y cells (from UniProt P37802 1-199)
  binding: binds
